The values below come from PMC12390933.

Assay [1] addresses UGT2B7 N1 mutant (Δ253–529), HA-tagged (UniProt P16662). The assay can be described thus: non-reducing, non-heated SDS-PAGE with western blot; cell lysates in RIPA buffer (50 μg) mixed with SDS sample buffer without 2-mercaptoethanol and without the heating step (90 °C, 3 min), 7.5% gel, room temperature, 70 to 150 min; western blot with anti-HA or anti-UGT2B7; SDS-stable oligomer bands, greatly decreased when the reducing agent is added. (In western blotting, separated proteins are transferred to a membrane and probed.)

Assay [2] addresses UGT2B7 fused with a C-terminal hemagglutinin tag (UGT2B7-HA), expressed in COS-1 cells (UniProt P16662). The assay can be described thus: cross-linking; living COS-1 cells 48 h after transfection treated with 1 mM DSS or DSP in PBS for 30 min, quenched with 10 mM Tris-HCl pH 7.5, then lysed; SDS-PAGE with or without reducing agent, western blot with anti-HA and anti-UGT2B7; DMSO as control.

Assay [3] has the same target. The assay can be described thus: non-reducing, non-heated SDS-PAGE with western blot; cell lysates in RIPA buffer (50 μg) mixed with SDS sample buffer without 2-mercaptoethanol and without the heating step (90 °C, 3 min), 7.5% gel, room temperature, 70 to 150 min; western blot with anti-HA or anti-UGT2B7; SDS-stable oligomer bands, greatly decreased when the reducing agent is added.

Assay [4] has as its target full-length HA-tag-free UGT2B7 C156A (UniProt P16662). The description is as above.
For assay [5], the target named is UGT2B7-HA expressed in HEK293 cells (UniProt P16662). The assay is described as above.
The target of assay [6] is full-length and HA-tag-free UGT2B7 (wild type) (UniProt P16662). Described as above.
Assay [7] addresses full-length HA-tag-free UGT2B7 C156/282A (UniProt P16662). The assay is described as above.
Assay [8] deals with UGT2B7-HA C282A mutant (WT C282A) (UniProt P16662). The assay is described as above.
In assay [9] the target is full-length HA-tag-free UGT2B7 C127/156A (UniProt P16662). The description is as above.
Assay [10] has as its target full-length HA-tag-free UGT2B7 C127A (UniProt P16662). The description is as above.
The target in assay [11] is UGT2B7-HA expressed in HepG2 cells (UniProt P16662). Described as above.
Assay [12] addresses full-length HA-tag-free UGT2B7 C127/282A (UniProt P16662). The assay is described as above.
Assay [13] deals with full-length HA-tag-free UGT2B7 C282A (UniProt P16662). The description is as above.
Assay [14] has as its target UGT2B7 C1 mutant (Δ24–200, TM), HA-tagged (UniProt P16662). Described as above.
For assay [15], the target named is UGT2B7 C1 C282A mutant, HA-tagged (UniProt P16662). Described as above.

Substitutions are numbered along the chain they refer to. Names and notes keep the numbering of the source. Results are given in words; binding and its absence hold for the method and conditions named. For part of these data: Binding seen in cells or lysates may run through a third protein. Some entries that bind do so weakly or less than the wild type. Where a sequence is shown, tags or fusion partners need not be part of it.

B1: UGT2B7 N1 mutant (Δ253–529), HA-tagged (domain or fragment, UniProt P16662 24-252)
chain: GKVLVWAAEYSHWMNIKTILDELIQRGHEVTVLASSASILFDPNNSSALKIEIYPTSLTKTELENFIMQQIKRWSDLPKDTFWLYFSQVQEIMSIFGDITRKFCKDVVSNKKFMKKVQESRFDVIFADAIFPCSELLAELFNIPFVYSLSFSPGYTFEKHSGGFIFPPSYVPVVMSELTDQMTFMERVKNMIYVLYFDFWFEIFDMKKWDQFYSEVLGRPTTLSETMGK
Consider B1, for which, in assay [1], the binding result is reported as “binds”.

B2: UGT2B7 fused with a C-terminal hemagglutinin tag (UGT2B7-HA), expressed in COS-1 cells (enzyme, UniProt P16662 24-529)
chain: GKVLVWAAEYSHWMNIKTILDELIQRGHEVTVLASSASILFDPNNSSALKIEIYPTSLTKTELENFIMQQIKRWSDLPKDTFWLYFSQVQEIMSIFGDITRKFCKDVVSNKKFMKKVQESRFDVIFADAIFPCSELLAELFNIPFVYSLSFSPGYTFEKHSGGFIFPPSYVPVVMSELTDQMTFMERVKNMIYVLYFDFWFEIFDMKKWDQFYSEVLGRPTTLSETMGKADVWLIRNSWNFQFPYPLLPNVDFVGGLHCKPAKPLPKEMEDFVQSSGENGVVVFSLGSMVSNMTEERANVIASALAQIPQKVLWRFDGNKPDTLGLNTRLYKWIPQNDLLGHPKTRAFITHGGANGIYEAIYHGIPMVGIPLFADQPDNIAHMKARGAAVRVDFNTMSSTDLLNALKRVINDPSYKENVMKLSRIQHDQPVKPLDRAVFWIEFVMRHKGAKHLRVAAHDLTWFQYHSLDVIGFLLVCVATVIFIVTKCCLFCFWKFARKAKKGKND
As to B2, the binding entry in assay [2] and in assay [3] was “binds” each time.

B3: full-length HA-tag-free UGT2B7 C156A (enzyme, UniProt P16662 24-529)
chain: B2 chain with C133A
For B3, the binding entry in assay [4] is on record as “binds”.

B4: UGT2B7-HA expressed in HEK293 cells (enzyme, UniProt P16662 24-529)
chain: B2 chain
As to B4, the binding result in [5] is listed as “binds”.

B5: full-length and HA-tag-free UGT2B7 (wild type) (enzyme, UniProt P16662 24-529)
chain: B2 chain
For B5, in [6], the binding entry is on record as “binds”.

B6: full-length HA-tag-free UGT2B7 C156/282A (enzyme, UniProt P16662 24-529)
chain: B2 chain with C133A, C259A
For the molecule B6, the binding result in assay [7] is “binds”.

B7: UGT2B7-HA C282A mutant (WT C282A) (enzyme, UniProt P16662 24-529)
chain: B2 chain with C259A
For the molecule B7, the binding entry in [8] was “binds”.

B8: full-length HA-tag-free UGT2B7 C127/156A (enzyme, UniProt P16662 24-529)
chain: B2 chain with C104A, C133A
Regarding B8, the binding result in assay [9] is on record as “binds”.

B9: full-length HA-tag-free UGT2B7 C127A (enzyme, UniProt P16662 24-529)
chain: B2 chain with C104A
As to B9, in assay [10], the binding result is on record as “binds”.

B10: UGT2B7-HA expressed in HepG2 cells (enzyme, UniProt P16662 24-529)
chain: B2 chain
As to B10, the binding result in assay [11] is recorded as “binds”.

B11: full-length HA-tag-free UGT2B7 C127/282A (enzyme, UniProt P16662 24-529)
chain: B2 chain with C104A, C259A
Regarding B11, in assay [12], the binding result is recorded as “binds”.

B12: full-length HA-tag-free UGT2B7 C282A (enzyme, UniProt P16662 24-529)
chain: B2 chain with C259A
Regarding B12, the binding entry in assay [13] is listed as “binds”.

B13: UGT2B7 C1 mutant (Δ24–200, TM), HA-tagged (domain or fragment, UniProt P16662)
chain: LTDQMTFMERVKNMIYVLYFDFWFEIFDMKKWDQFYSEVLGRPTTLSETMGKADVWLIRNSWNFQFPYPLLPNVDFVGGLHCKPAKPLPKEMEDFVQSSGENGVVVFSLGSMVSNMTEERANVIASALAQIPQKVLWRFDGNKPDTLGLNTRLYKWIPQNDLLGHPKTRAFITHGGANGIYEAIYHGIPMVGIPLFADQPDNIAHMKARGAAVRVDFNTMSSTDLLNALKRVINDPSYKENVMKLSRIQHDQPVKPLDRAVFWIEFVMRHKGAKHLRVAAHDLTWFQYHSLD
B13: the binding result in assay [14] is given as “binds”.

B14: UGT2B7 C1 C282A mutant, HA-tagged (domain or fragment, UniProt P16662)
chain: B13 chain with C82A
Take B14: the binding entry in [15] is “no binding”.
